According to patent publication US20250275988A1, “FORMULATION FOR TREATING URINARY SYSTEM DISORDERS” (WATERSHED MEDICAL, INC., priority 2022, published 2025):

Experiment: density and max drug loading of antimicrobial agents considered for carrier particles
Type: physicochemical
Conditions: Table 7

Compound: CN(C)c1cc(NC(=O)CNC(C)(C)C)c(O)c2c1C[C@H]1C[C@H]3[C@H](N(C)C)C(O)=C(C(N)=O)C(=O)[C@@]3(O)C(O)=C1C2=O [Tigecycline]
- Max Drug Loading: 20%
